Assay results: PMC9562184
No constants are given. Whether binding was seen depends on the method and setting. In cells and extracts the contact can be indirect. For some assays here: Binding calls can cover weak binding; strength is not graded here. Tags and fused reporters may be left off the sequences shown.

Key:
Flag–HDAC1-C domain = experiment: co-IP; exogenous: HEK293T cells co-transfected with tagged plasmids; lysates incubated with tag antibodies (anti-HA, anti-Myc, anti-Flag) and protein G-Sepharose overnight at 4 °C, washed four times with lysis buffer (50 mM Tris–Cl, 150 mM NaCl, 1% NP40, 0.5% sodium deoxycholate, 1% SDS, pH 8.0), Western blot; in some panels cells with stable Myc–CREPT or CREPT KO, Flag–HDAC1 or siHDAC1, or with Wnt3a for 20 h
Flag–HDAC1-N domain = experiment: as above

- binding (Flag–HDAC1-C domain): no binding
- binding (Flag–HDAC1-N domain): binds
B1: Myc–CREPT (cell cycle-related and expression-elevated protein in tumor) (protein, UniProt Q9NQG5 1-326)
chain: MSSFSESALEKKLSELSNSQQSVQTLSLWLIHHRKHAGPIVSVWHRELRKAKSNRKLTFLYLANDVIQNSKRKGPEFTREFESVLVDAFSHVAREADEGCKKPLERLLNIWQERSVYGGEFIQQLKLSMEDSKSPPPKATEEKKSLKRTFQQIQEEEDDDYPGSYSPQDPSAGPLLTEELIKALQDLENAASGDATVRQKIASLPQEVQDVSLLEKITDKEAAERLSKTVDEACLLLAEYNGRLAAELEDRRQLARMLVEYTQNQKDVLSEKEKKLEEYKQKLARVTQVRKELKSHIQSLPDLSLLPNVTGGLAPLPSAGDLFSTD
